Source: patent publication EP2157088A1, “INDICYANINE DYES AND THE DERIVATIVES THEREOF FOR ANALYSING BIOLOGICAL MICROMOLECULES” (UCHREZHDENIE ROSSIISKOI AKADEMII NAUK INSTITUT …, priority 2007, dated 2008)
Where a name gives a salt, the structure may show the parent alone.

Test: Sensitivity of record of dye-labeled oligonucleotides in hydrogel cells of a biochip (portable fluorescent analyzer, 655 nm / 690 nm, 40 mW)
Conditions: semiconductor laser 655 nm / 690 nm

CC1(C)C(=CC=CC=CC2=[N+](CCCCS(=O)(=O)[O-])c3ccc(CCC(=O)O)cc3C2(C)C)N(CCCCS(=O)(=O)[O-])c2ccccc21.[Na+] [B5, N,N'-disulfobutyl-5-carboxyethyl-3,3,3',3'-tetramethylindodicarbocyanine, sodium salt]
sensitivity of record (lower threshold of sensitivity): 5e-18 mol

CC1(C)C(C=CC=CC=C2N(CCCCS(=O)(=O)O)c3ccccc3C2(C)CCCCC(=O)O)=[N+](CCCCS(=O)(=O)[O-])c2ccccc21 (centres unmarked) [A10, N,N'-di(4-sulfobutyl)-3-(4-carboxybutyl)-3,3',3'-trimethylindodicarbocyanine, sodium salt]
sensitivity of record (lower threshold of sensitivity): 3e-18 mol
